Measured values reported in PubChem BioAssay AID540256 (National Center for Advancing Translational Sciences (NCATS), 2011).
About 3,700 (1.2%) of roughly 300,000 compounds were called active. Inconclusive means that the source gave no clear call. Such entries were picked first, then a sample of the others. The call rests on the fitted dose curve; tested in HEK293 cells. A potency beside an inconclusive call is a rough fit, not a confirmed value.

assay: qHTS for Inhibitors of binding or entry into cells for Lassa Virus; settings: Lassa virus pseudotype entry inhibition, cell reporter; series mostly up to 37.9 µM; further: nearly all actives have a fitted effect of over 50% in size
Potency means the concentration at half of the fitted maximal effect.

Structure (SMILES) | Potency
CCCOc1ccc(CNC(=O)c2oc3ccc4c(c3c2C)C(=O)CC(C)(CC)O4)cc1 (configuration not stated) | inconclusive: 11.2 µM [inhibitor, single point]
OC[C@H]1O[C@H](C#Cc2ccccc2)C=C[C@H]1O | inconclusive: 1.19 µM [inhibitor, single point]
CCc1cc2c3c(c1)C(C)CC(C)(C)N3C(=O)C2=O (configuration not stated) | inconclusive: 7.31 µM [inhibitor, partial curve, poor fit]
O=C(Oc1cccc(NC(=O)c2cccs2)c1)c1cccc(S(=O)(=O)N2CCCC2)c1 | inactive
CCCCCCOc1ccc(CN2CCN(C)CC2)cc1 | inconclusive: 16.4 µM [inhibitor, single point]
O=C(NC1CCCCC1)C(c1ccccc1)N(Cc1ccc2c(c1)OCO2)C(=O)c1cnsn1 (configuration not stated) | inconclusive: 35.5 µM [inhibitor, single point]
CC(C)N(C)C(=O)CCc1nnc(CCc2c[nH]c3ccccc23)o1 | inconclusive: 35.5 µM [inhibitor, single point]
COc1ccccc1Oc1ccnc2cc(Cl)ccc12 | inconclusive: 35.5 µM [inhibitor, single point]
COc1ccc(NC(=O)C23CC4CC(CC(Cl)(C4)C2)C3)cc1S(=O)(=O)N1CCOCC1 | inconclusive: 6.31 µM [inhibitor, single point]
CC(C)Cn1c(N)c(C(=O)COC(=O)CN2C(=O)C3CC=CCC3C2=O)c(=O)n(C)c1=O (configuration not stated) | inconclusive: 35.5 µM [inhibitor, single point]
CCOCCCNC(=O)C1CCN(S(=O)(=O)c2c(C)noc2/C=C\c2ccc(OC)cc2)CC1 | inactive
CCc1cccc(C)c1NC(=O)CO/N=C(\C)c1cc2ccccc2o1 | inconclusive: 0.199 µM [inhibitor, full curve, poor fit]
Cc1ccccc1NS(=O)(=O)c1cc(C(=O)NCc2ccncc2)ccc1Cl | inconclusive: 15.8 µM [inhibitor, partial curve, poor fit]
S=C(NN=C(c1ccccc1)c1ccccn1)N(Cc1ccccn1)Cc1ccccn1 | inconclusive: 3.16 µM [inhibitor, partial curve, poor fit]
O=C(Nc1c(C(=O)N2CCN(c3ccccc3F)CC2)oc2ccccc12)c1ccco1 | inconclusive: 35.5 µM [inhibitor, single point]
Brc1ccccc1C1CC(c2ccccc2)=Nc2ccccc2N1 (configuration not stated) | inconclusive: 3.55 µM [inhibitor, full curve]
C/C(=N/NC(=O)c1ccc2c(c1)OCCO2)c1ccc([N+](=O)[O-])cc1 | inconclusive: 3.98 µM [activator, full curve, poor fit]
COc1ccc2c(Cl)c(-c3nnc(SCC(=O)c4ccccc4)n3C)sc2c1 | inconclusive: 5.17 µM [inhibitor, partial curve, poor fit]
c1ccc(-n2ncc3c(NCc4cccs4)ncnc32)cc1 | inconclusive: 29.1 µM [inhibitor, single point]
O=C(N/N=C/c1ccccc1OCC(=O)N1CCCC1)C(=O)Nc1ccccc1F | inconclusive: 25.1 µM [activator, single point]
COc1cc(NC(=O)c2cccs2)ccc1NC(=O)c1ccccc1Cl | inconclusive: 3.55 µM [inhibitor, single point]

Structure (SMILES) | Potency
CN1CCN(CCCNC(=O)c2cnn(-c3ccc(F)cc3)c2-n2cccc2)CC1 | inconclusive: 12.6 µM [activator, single point]
c1ccc(-c2cc3ncc4c(n3n2)-c2ccccc2OC4)cc1 | inconclusive: 0.562 µM [activator, full curve, poor fit]
COc1ccc(C2=C(C(C)=O)Sc3nnc(-c4ccc(Cl)cc4)n3N2C(C)=O)cc1OC | inconclusive: 0.562 µM [inhibitor, full curve, poor fit]
COc1cc2c3c(c1OC)-c1cc4c(cc1CC3(C#N)N(C(=O)c1ccccc1)CC2)OCO4 (configuration not stated) | inconclusive: 1.26 µM [activator, single point]
COc1ccc(N(CC(=O)N2CCc3ccccc3C2)S(=O)(=O)c2ccc(C)cc2)cc1Cl | inconclusive: 7.94 µM [inhibitor, partial curve]
COc1cccc(CNc2ncnc3onc(C)c23)c1 | inactive
COc1cc(SC)ccc1C(=O)N1CCN(c2ccccc2)CC1 | active: 12.6 µM
CN1CCc2c(OCC(=O)N3CCCc4ccccc43)cccc2C1=O | inconclusive: 17.8 µM [inhibitor, single point]
c1ccc(OCCN2CCNCC2)cc1 | inactive
Cc1ccc(NS(=O)(=O)c2cccc(C(=O)N/N=C/c3c(C)nn(-c4ccccc4)c3N3CCCC3)c2)c(C)c1 | inconclusive: 1.41 µM [activator, partial curve, poor fit]
Fc1ccc(C(CCNCc2ccccn2)c2ccc(Cl)cc2)cc1 (configuration not stated) | inconclusive: 35.5 µM [inhibitor, single point]
O=C(NC(=S)NCCc1ccccc1)c1ccco1 | inconclusive: 11.2 µM [activator, single point]
CCSC(SCC)[C@H](O)[C@@H](O)[C@H](O)[C@H](O)CO | inactive
O=C(CN1C(=O)c2ccccc2S1(=O)=O)c1ccc(Cl)cc1Cl | active: 0.562 µM
CCc1[nH]nc2c1C(c1ccc(Br)s1)C(C#N)=C(N)O2 (configuration not stated) | inconclusive: 35.5 µM [inhibitor, single point]
Cc1ccc(NCCC(=O)c2ccccc2)cc1Cl | inactive
Cn1nccc1C(=O)N1CCCC(C(=O)c2ccc(C(F)(F)F)cc2)C1 (configuration not stated) | inactive
Cc1oc(-c2ccc3c(c2)OCCO3)cc1C(=O)O | active: 1.12 µM
CN(Cc1ccccc1)C(=O)[C@H]1CCC(=O)N1Cc1ccco1 | inconclusive: 3.55 µM [inhibitor, single point]
COc1ccc(C(=O)/C=C/NCc2ccc(F)cc2)cc1OC | inconclusive: 5.62 µM [activator, single point]
O=C(N/C=C/c1ccccc1)Nc1ccc(Cl)cc1 | inconclusive: 35.5 µM [inhibitor, single point]

Of the compounds above, two have an NH in an aromatic ring.
Structure (SMILES) | Potency
CC(C)N(C)C(=O)CCc1nnc(CCc2c[nH]c3ccccc23)o1 | inconclusive: 35.5 µM [inhibitor, single point]
CCc1[nH]nc2c1C(c1ccc(Br)s1)C(C#N)=C(N)O2 (configuration not stated) | inconclusive: 35.5 µM [inhibitor, single point]
